# Measured values published in the supplement of paper PMC7238544.
# Counter-ions that a name gives are not always drawn. ± gives the standard deviation of the averaged measurements. The list shows a part of the results. The data scatter; read single values as rough.
# Key:
# hAMSC donor 1 [1] = assay: Hoechst total cell count ratio vs vehicle control; higher = more cells (less toxicity)
# hAMSC donor 2 [2] = assay: as above
# hAMSC donor 1 [3] = assay: transgenic luciferase activity (RLU/mg protein) fold change vs vehicle control (ratio); higher = more transgene expression
# hAMSC donor 1 [4] = assay: transfection efficiency (EGFP+ cells / Hoechst count) fold change vs vehicle control (ratio); higher = enhanced transfection
# hAMSC donor 2 [5] = assay: as above
# hAMSC donor 2 [6] = assay: transgenic luciferase activity (RLU/mg protein) fold change vs vehicle control (ratio); hAMSC are human adipose-derived mesenchymal stem cells given an EGFP-luciferase plasmid by lipofection; higher = more transgene expression
# [7] = priming compound concentration 0.2 µM
# [8] = priming compound concentration 1.7 µM
# [9] = priming compound concentration 13 µM
Compound,Hoechst total cell count ratio (hAMSC donor 1 [1]; [7]),Hoechst total cell count ratio (hAMSC donor 1 [1]; [8]),Hoechst total cell count ratio (hAMSC donor 1 [1]; [9]),Hoechst total cell count ratio (hAMSC donor 2 [2]; [7]),Hoechst total cell count ratio (hAMSC donor 2 [2]; [8]),Hoechst total cell count ratio (hAMSC donor 2 [2]; [9]),transgenic luciferase activity (hAMSC donor 1 [3]; [9]),transfection efficiency (hAMSC donor 1 [4]; [7]),transfection efficiency (hAMSC donor 1 [4]; [8]),transfection efficiency (hAMSC donor 1 [4]; [9]),transfection efficiency (hAMSC donor 2 [5]; [7]),transfection efficiency (hAMSC donor 2 [5]; [8]),transfection efficiency (hAMSC donor 2 [5]; [9]),transgenic luciferase activity (hAMSC donor 1 [3]; [7]),transgenic luciferase activity (hAMSC donor 1 [3]; [8]),transgenic luciferase activity (hAMSC donor 2 [6]; [8]),transgenic luciferase activity (hAMSC donor 2 [6]; [9]),transgenic luciferase activity (hAMSC donor 2 [6]; [7])
CS(=O)(=O)Nc1ccc(Cc2noc(-c3ccc4[nH]cc(CCN)c4c3)n2)cc1,1.15 ± 0.064,1.18 ± 0.098,1.36 ± 0.15,1.06 ± 0.27,1.36 ± 0.053,1.13 ± 0.066,0.943 ± 0.52,1.1 ± 0.16,1.47 ± 0.075,0.726 ± 0.22,1.13 ± 0.091,1.03 ± 0.081,0.781 ± 0.19,,,,,
Cc1ccc(-c2nc3ccc(C)cn3c2CC(=O)N(C)C)cc1 [Zolpidem tartrate],1.14 ± 0.034,1.42 ± 0.074,1.37 ± 0.39,1.18 ± 0.24,0.608 ± 0.086,0.862 ± 0.28,,1.32 ± 0.21,1.06 ± 0.16,1.24 ± 0.11,0.813 ± 0.2,1.9 ± 0.24,1.24 ± 0.21,0.68 ± 0.17,0.715 ± 0.29,0.648 ± 0.024,0.332 ± 0.27,
CC[C@]1(O)CC[C@H]2[C@@H]3CCC4=CCCC[C@@H]4[C@H]3CC[C@@]21C [Ethylestrenol],1.23 ± 0.046,1.33 ± 0.13,1.28 ± 0.079,1.11 ± 0.11,1.27 ± 0.18,1.25 ± 0.11,,0.875 ± 0.14,0.894 ± 0.31,1.54 ± 0.5,1.52 ± 0.39,0.911 ± 0.2,1.06 ± 0.23,1.68 ± 0.46,,,,1.22 ± 0.31
CCC1(c2ccc(N)cc2)CCC(=O)NC1=O (stereo not given) [Aminoglutethimide],1.24 ± 0.23,1.36 ± 0.19,1.29 ± 0.26,1.14 ± 0.1,1.12 ± 0.057,1.32 ± 0.13,0.905 ± 0.35,0.893 ± 0.089,1.11 ± 0.4,0.884 ± 0.24,0.915 ± 0.13,1.02 ± 0.058,0.952 ± 0.12,,,0.772 ± 0.031,0.681 ± 0.18,0.611 ± 0.052
COc1cc(N)c(Cl)cc1C(=O)NC1CN2CCC1CC2 (stereo not given) [Zacopride hydrochloride hydrate],1.24 ± 0.027,1.21 ± 0.13,0.968 ± 0.028,1.07 ± 0.2,0.785 ± 0.1,1.31 ± 0.15,,1.01 ± 0.14,1.07 ± 0.52,0.906 ± 0.23,1.4 ± 0.42,1.42 ± 0.26,0.963 ± 0.23,,2.07 ± 1.1,5.41 ± 3.2,1.31 ± 0.62,0.817 ± 0.23
CC[C@@H](C(N)=O)N1CCCC1=O [Levetiracetam],1.14 ± 0.14,1.04 ± 0.034,1.16 ± 0.046,1.26 ± 0.33,1.16 ± 0.064,1.48 ± 0.044,0.724 ± 0.33,1.65 ± 1.1,1.2 ± 0.12,0.763 ± 0.23,1.1 ± 0.41,1.11 ± 0.28,0.753 ± 0.19,,,,,
CN1CCN(C(=O)O[C@H]2c3nccnc3C(=O)N2c2ccc(Cl)cn2)CC1 [Eszopiclone],1.2 ± 0.045,1.5 ± 0.26,1.22 ± 0.035,1.02 ± 0.13,1.05 ± 0.043,1.07 ± 0.078,0.666 ± 0.081,1.08 ± 0.24,0.894 ± 0.12,0.877 ± 0.19,1.24 ± 0.15,1.08 ± 0.042,1.262 ± 0.0046,,,,0.844 ± 0.064,0.633 ± 0.098
C=C1C[C@@H]2[C@H](CC[C@]3(C)C(=O)CC[C@@H]23)[C@@]2(C)C=CC(=O)C=C12 [Exemestane],1.48 ± 0.13,1.49 ± 0.086,1.13 ± 0.05,1.25 ± 0.087,1.07 ± 0.15,1.18 ± 0.16,,0.954 ± 0.28,0.995 ± 0.057,1.09 ± 0.042,0.985 ± 0.06,1.05 ± 0.11,1.14 ± 0.042,0.935 ± 0.22,,,,
CNCC(O)c1ccc(O)cc1 (stereo not given) [Synephrine],1.41 ± 0.1,1.26 ± 0.31,0.979 ± 0.15,1.22 ± 0.21,0.962 ± 0.12,1.3 ± 0.14,1.07 ± 0.27,0.842 ± 0.18,1.03 ± 0.091,1.19 ± 0.27,1.2 ± 0.31,1.11 ± 0.12,0.966 ± 0.19,,,,,
CCCC(C)(COC(N)=O)COC(=O)NC(C)C (stereo not given) [Carisoprodol],1 ± 0.11,1.24 ± 0.21,1.41 ± 0.044,1.13 ± 0.075,0.723 ± 0.15,1.28 ± 0.16,8.63 ± 2.8,1.49 ± 0.18,1.34 ± 0.41,1.27 ± 0.34,0.97 ± 0.098,1.38 ± 0.15,0.881 ± 0.19,0.543 ± 0.14,,0.637 ± 0.14,,0.75 ± 0.074
CN1[C@@H]2CC[C@H]1C[C@@H](OC(=O)C(CO)c1ccccc1)C2 (stereo not given in full) [Atropine],1.22 ± 0.17,1.27 ± 0.25,1.3 ± 0.097,1.12 ± 0.15,1.03 ± 0.085,1.25 ± 0.13,0.815 ± 0.16,0.992 ± 0.12,1.03 ± 0.08,1.05 ± 0.22,1.24 ± 0.34,1.11 ± 0.11,1 ± 0.043,,,,0.814 ± 0.47,0.741 ± 0.15
CC[C@@H]1/C=C/C=C/C[C@H](C)[C@H](O)[C@](C)(O)C(=O)[C@H](C)[C@@H](O)[C@H](C)C(=O)[C@H](C)[C@@H](O)[C@H](C)/C=C/C(=O)O[C@H]2[C@@H](C)[C@@H](CC1)O[C@@]1(CC[C@@H](C)[C@@H](C[C@H](C)O)O1)[C@@H]2C [Oligomycin A],0.88 ± 0.081,0.802 ± 0.022,0.784 ± 0.12,1.29 ± 0.24,1.25 ± 0.097,1.32 ± 0.23,,1.2 ± 0.45,1.44 ± 0.41,1.06 ± 0.45,0.993 ± 0.14,0.874 ± 0.15,0.608 ± 0.05,,1.57 ± 0.8,1 ± 0.078,,0.942 ± 0.15
COc1cccc(C2(O)CCCCC2CN(C)C)c1 (stereo not given) [Tramadol hydrochloride],1.14 ± 0.082,1.04 ± 0.079,1.09 ± 0.08,1.08 ± 0.35,1.24 ± 0.37,1.25 ± 0.19,,1.09 ± 0.36,1.3 ± 0.14,1.36 ± 0.38,1.23 ± 0.18,1.36 ± 0.34,0.98 ± 0.25,,0.875 ± 0.072,1.35 ± 0.43,,1.09 ± 0.41
